Results are given in words; binding and its absence hold for the method and conditions named. Some binding calls cover weakened binding; strength is not graded here.

By UniProt entry, the sequences of proteins in these tests, tags left out.
UniProt Q9WTL8: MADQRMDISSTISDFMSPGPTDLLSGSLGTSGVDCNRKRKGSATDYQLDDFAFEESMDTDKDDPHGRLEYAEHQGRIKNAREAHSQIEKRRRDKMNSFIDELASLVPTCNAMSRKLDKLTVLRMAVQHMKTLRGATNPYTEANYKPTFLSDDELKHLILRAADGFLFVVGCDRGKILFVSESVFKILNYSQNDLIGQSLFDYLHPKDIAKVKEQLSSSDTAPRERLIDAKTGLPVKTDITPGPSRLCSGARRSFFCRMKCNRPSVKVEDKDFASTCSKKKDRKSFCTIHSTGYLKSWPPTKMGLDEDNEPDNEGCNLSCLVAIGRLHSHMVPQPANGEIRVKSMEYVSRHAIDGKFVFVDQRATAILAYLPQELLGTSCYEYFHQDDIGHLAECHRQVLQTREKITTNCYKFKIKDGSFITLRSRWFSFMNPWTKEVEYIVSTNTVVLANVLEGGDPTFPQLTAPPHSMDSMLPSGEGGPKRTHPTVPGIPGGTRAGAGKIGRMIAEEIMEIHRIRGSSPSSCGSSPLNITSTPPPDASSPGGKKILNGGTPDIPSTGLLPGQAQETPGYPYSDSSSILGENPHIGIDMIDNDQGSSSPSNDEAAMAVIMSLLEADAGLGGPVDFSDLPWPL

The target in this experiment is BMAL1 (mouse (endogenous in C57BL/6J liver)) (UniProt Q9WTL8). Description: native gel or EMSA; antibody supershift of protein complexes on 32P-labelled tandem E-box probes (Dbp EP, Dbp EI2, Per2 E', Per1 EP1); 15 ug liver nuclear protein (ZT8), 25 mM HEPES-KOH pH 7.6, 150 mM NaCl, 0.1 mM EDTA, 1 mM DTT; 16°C 30 min; anti-CLOCK or anti-BMAL1 added before the probe. In general terms: Mobility shift assays separate free from complexed probe on a gel.

B1: CLOCK (protein, UniProt O08785 1-855)
chain: MVFTVSCSKMSSIVDRDDSSIFDGLVEEDDKDKAKRVSRNKSEKKRRDQFNVLIKELGSMLPGNARKMDKSTVLQKSIDFLRKHKETTAQSDASEIRQDWKPTFLSNEEFTQLMLEALDGFFLAIMTDGSIIYVSESVTSLLEHLPSDLVDQSIFNFIPEGEHSEVYKILSTHLLESDSLTPEYLKSKNQLEFCCHMLRGTIDPKEPSTYEYVRFIGNFKSLTSVSTSTHNGFEGTIQRTHRPSYEDRVCFVATVRLATPQFIKEMCTVEEPNEEFTSRHSLEWKFLFLDHRAPPIIGYLPFEVLGTSGYDYYHVDDLENLAKCHEHLMQYGKGKSCYYRFLTKGQQWIWLQTHYYITYHQWNSRPEFIVCTHTVVSYAEVRAERRRELGIEESLPETAADKSQDSGSDNRINTVSLKEALERFDHSPTPSASSRSSRKSSHTAVSDPSSTPTKIPTDTSTPPRQHLPAHEKMTQRRSSFSSQSINSQSVGPSLTQPAMSQAANLPIPQGMSQFQFSAQLGAMQHLKDQLEQRTRMIEANIHRQQEELRKIQEQLQMVHGQGLQMFLQQSNPGLNFGSVQLSSGNSNIQQLTPVNMQGQVVPANQVQSGHISTGQHMIQQQTLQSTSTQQSQQSVMSGHSQQTSLPSQTPSTLTAPLYNTMVISQPAAGSMVQIPSSMPQNSTQSATVTTFTQDRQIRFSQGQQLVTKLVTAPVACGAVMVPSTMLMGQVVTAYPTFATQQQQAQTLSVTQQQQQQQQQPPQQQQQQQQSSQEQQLPSVQQPAQAQLGQPPQQFLQTSRLLHGNPSTQLILSAAFPLQQSTFPPSHHQQHQPQQQQQLPRHRTDSLTDPSKVQPQ
B1: the binding result is listed as “binds”.

(Values after PMC3622178.)
